Assay results reported in article PMC2996883.
No constants are given. Whether binding was seen depends on the method and setting. In cells and extracts the contact can be indirect. Some entries that bind do so weakly or less than the wild type. For part of these data: Where a sequence is shown, tags or fusion partners need not be part of it.

T1: HA-ELOVL7 (human) (UniProt A1L3X0)
T1 sequence: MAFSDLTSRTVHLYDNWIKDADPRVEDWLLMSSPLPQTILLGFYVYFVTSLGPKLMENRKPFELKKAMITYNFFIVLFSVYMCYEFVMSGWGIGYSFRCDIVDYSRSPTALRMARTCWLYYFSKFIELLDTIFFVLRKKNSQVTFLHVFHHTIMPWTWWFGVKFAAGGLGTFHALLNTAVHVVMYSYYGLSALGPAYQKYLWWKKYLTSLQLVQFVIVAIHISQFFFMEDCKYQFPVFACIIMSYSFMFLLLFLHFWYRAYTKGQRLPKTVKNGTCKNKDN

T2: HA-tagged 3-ketoacyl-CoA reductase (KAR) (UniProt Q53GQ0)
T2 sequence: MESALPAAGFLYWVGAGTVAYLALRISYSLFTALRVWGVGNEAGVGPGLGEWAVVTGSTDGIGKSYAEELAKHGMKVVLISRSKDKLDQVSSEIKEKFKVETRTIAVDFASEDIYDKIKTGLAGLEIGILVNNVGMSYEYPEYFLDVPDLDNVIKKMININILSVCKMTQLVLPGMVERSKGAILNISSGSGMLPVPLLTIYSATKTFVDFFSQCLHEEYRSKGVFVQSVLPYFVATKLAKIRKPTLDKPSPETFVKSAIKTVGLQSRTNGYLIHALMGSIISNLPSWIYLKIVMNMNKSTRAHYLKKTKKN

T3: ELOVL4ΔC, C-terminally truncated ELOVL4 lacking the C-terminal 51 amino acid residues (human) (UniProt Q9GZR5)
T3 sequence: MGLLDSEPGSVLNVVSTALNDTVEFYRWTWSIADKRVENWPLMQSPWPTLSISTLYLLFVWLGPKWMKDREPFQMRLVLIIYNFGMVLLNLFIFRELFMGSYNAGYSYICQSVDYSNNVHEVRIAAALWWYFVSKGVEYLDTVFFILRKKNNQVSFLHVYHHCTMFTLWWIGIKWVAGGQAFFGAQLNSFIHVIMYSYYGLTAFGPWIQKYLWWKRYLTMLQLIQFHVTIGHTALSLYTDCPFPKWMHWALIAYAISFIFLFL

T4: HA-ELOVL6 (human) (UniProt Q9H5J4)
T4 sequence: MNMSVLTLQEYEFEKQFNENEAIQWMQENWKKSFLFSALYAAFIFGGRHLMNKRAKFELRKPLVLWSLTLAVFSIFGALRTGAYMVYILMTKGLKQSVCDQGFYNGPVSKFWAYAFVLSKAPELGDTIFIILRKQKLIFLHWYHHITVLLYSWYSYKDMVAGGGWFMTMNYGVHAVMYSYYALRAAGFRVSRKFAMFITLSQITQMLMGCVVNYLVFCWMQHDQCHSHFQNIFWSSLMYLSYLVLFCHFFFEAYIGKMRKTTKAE

T5: HA-ELOVL3 (human) (UniProt Q9HB03)
T5 sequence: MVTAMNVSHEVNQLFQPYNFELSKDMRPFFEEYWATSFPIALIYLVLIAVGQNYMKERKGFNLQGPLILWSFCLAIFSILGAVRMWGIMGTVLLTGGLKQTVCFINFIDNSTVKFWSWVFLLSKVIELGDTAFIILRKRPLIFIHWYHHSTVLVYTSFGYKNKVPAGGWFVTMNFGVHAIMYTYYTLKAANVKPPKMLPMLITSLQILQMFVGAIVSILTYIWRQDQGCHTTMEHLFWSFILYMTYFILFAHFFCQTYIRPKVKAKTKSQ

T6: elongase of very long-chain fatty acids-like 4 (ELOVL4), wild type (human) (UniProt Q9GZR5)
T6 sequence: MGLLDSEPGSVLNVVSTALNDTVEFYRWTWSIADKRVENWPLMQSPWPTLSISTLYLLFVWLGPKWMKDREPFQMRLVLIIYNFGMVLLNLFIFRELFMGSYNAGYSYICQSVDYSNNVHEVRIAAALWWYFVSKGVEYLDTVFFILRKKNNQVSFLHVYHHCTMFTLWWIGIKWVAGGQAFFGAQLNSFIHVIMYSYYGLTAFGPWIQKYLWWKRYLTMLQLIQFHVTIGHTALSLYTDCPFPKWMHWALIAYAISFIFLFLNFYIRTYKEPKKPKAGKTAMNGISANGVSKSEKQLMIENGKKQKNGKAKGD

T7: HA-ELOVL1 (human) (UniProt Q9BW60)
T7 sequence: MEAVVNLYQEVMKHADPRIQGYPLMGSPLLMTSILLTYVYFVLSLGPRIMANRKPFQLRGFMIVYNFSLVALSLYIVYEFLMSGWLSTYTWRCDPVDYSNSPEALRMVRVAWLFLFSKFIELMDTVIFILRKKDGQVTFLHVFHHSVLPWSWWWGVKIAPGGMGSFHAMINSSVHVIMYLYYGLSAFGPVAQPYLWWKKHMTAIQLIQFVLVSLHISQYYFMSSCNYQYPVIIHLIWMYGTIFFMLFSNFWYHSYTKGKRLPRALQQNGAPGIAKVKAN

T8: HA-ELOVL2 (human) (UniProt Q9NXB9)
T8 sequence: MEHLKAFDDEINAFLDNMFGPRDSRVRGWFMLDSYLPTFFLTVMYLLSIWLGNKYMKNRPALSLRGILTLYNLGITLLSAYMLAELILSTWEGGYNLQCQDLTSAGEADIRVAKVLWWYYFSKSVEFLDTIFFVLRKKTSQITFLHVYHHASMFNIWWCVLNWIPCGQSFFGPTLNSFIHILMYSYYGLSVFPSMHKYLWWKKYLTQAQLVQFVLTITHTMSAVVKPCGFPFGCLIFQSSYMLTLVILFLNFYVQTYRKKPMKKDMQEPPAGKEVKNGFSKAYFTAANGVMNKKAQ

T9: HA-ELOVL5 (human) (UniProt Q9NYP7)
T9 sequence: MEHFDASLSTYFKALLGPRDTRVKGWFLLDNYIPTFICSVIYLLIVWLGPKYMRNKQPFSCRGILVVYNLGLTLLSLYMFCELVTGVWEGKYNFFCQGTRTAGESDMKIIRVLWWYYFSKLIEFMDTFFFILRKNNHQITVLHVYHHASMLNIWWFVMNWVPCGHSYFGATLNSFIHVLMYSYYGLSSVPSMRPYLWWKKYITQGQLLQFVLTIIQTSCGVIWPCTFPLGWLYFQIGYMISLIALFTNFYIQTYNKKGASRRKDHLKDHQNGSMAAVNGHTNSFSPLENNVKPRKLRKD

B1: elongase of very long-chain fatty acids-like 4 (ELOVL4), wild type (enzyme, UniProt Q9GZR5 1-314)
chain: T6 sequence
B2: ELOVL4ΔC, C-terminally truncated ELOVL4 lacking the C-terminal 51 amino acid residues (domain or fragment, UniProt Q9GZR5 1-263)
chain: T3 sequence

Tests used:
Assay in all cases: co-IP; HEK 293T cells co-transfected with an HA-tagged and a His6-Myc-tagged construct; lysate in 50 mM HEPES-NaOH pH 7.4, 150 mM NaCl, 10% glycerol, solubilised with 1% Triton X-100; anti-HA (HA-7) agarose overnight at 4 °C; immunoblot with anti-HA or anti-Myc
HA-ELOVL7 (human) = molecular target: T1, HA-ELOVL7 (human)
[1] = molecular target: T2, HA-tagged 3-ketoacyl-CoA reductase (KAR)
[2] = molecular target: T3, ELOVL4ΔC, C-terminally truncated ELOVL4 lacking the C-terminal 51 amino acid residues (human)
HA-ELOVL6 (human) = molecular target: T4, HA-ELOVL6 (human)
HA-ELOVL3 (human) = molecular target: T5, HA-ELOVL3 (human)
[3] = molecular target: T6, elongase of very long-chain fatty acids-like 4 (ELOVL4), wild type (human)
HA-ELOVL1 (human) = molecular target: T7, HA-ELOVL1 (human)
HA-ELOVL2 (human) = molecular target: T8, HA-ELOVL2 (human)
HA-ELOVL5 (human) = molecular target: T9, HA-ELOVL5 (human)

| Binder | binding (HA-ELOVL7 (human)) | binding [1] | binding [2] | binding (HA-ELOVL6 (human)) | binding (HA-ELOVL3 (human)) | binding [3] | binding (HA-ELOVL1 (human)) | binding (HA-ELOVL2 (human)) | binding (HA-ELOVL5 (human)) |
| --- | --- | --- | --- | --- | --- | --- | --- | --- | --- |
| B1 | binds weakly | binds | binds | binds weakly | binds weakly | binds weakly | binds weakly | binds weakly | binds weakly |
| B2 | binds | binds | binds | binds | binds | binds | binds | binds | binds |
